Source: patent publication US20170234870A1
No constants are given. Whether binding was seen depends on the method and setting. Some entries that bind do so weakly or less than the wild type. Sequences can lack the tags named with a protein.

Sequences of proteins named here, by UniProt entry; tags and fusion partners are left off. A change or cut given only in a name is not applied to a line headed by its entry.
UniProt P62873: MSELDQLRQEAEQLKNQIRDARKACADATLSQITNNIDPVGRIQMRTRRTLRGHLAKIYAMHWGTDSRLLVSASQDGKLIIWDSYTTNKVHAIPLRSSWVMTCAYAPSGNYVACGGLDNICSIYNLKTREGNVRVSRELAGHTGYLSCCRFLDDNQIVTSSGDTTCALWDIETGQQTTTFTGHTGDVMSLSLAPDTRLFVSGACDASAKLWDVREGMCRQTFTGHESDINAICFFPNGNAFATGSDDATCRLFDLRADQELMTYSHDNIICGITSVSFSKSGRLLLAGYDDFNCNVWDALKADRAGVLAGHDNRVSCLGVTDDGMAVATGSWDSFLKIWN

How the values were obtained:
[1] = target: Gβ1 / Rluc F2-Gγ5 dimer (untagged Gβ1 with Gγ5 tagged at its N-terminus with residues 111 to 311 of RlucII) (UniProt P62873); test: Rluc protein complementation assay in HEK293 cells expressing TPαR, Gβ1 and Gα11
[2] = target: Gβ1 / GFP10-Gγ5 dimer (untagged Gβ1 with Gγ5 tagged at its N-terminus with GFP10) (UniProt P62873); test: BRET dose-response in HEK293 cells with TPαR and Gαq, U46619

Row | binding [1] | binding [2] | Binder
1 | binds |  | GRK2-Rluc F1 (GRK2 tagged at its C-terminus with residues 1 to 110 of RlucII) (protein) MADLEAVLADVSYLMAMEKSKATPAARASKKILLPEPSIRSVMQKYLEDRGEVTFEKIFSQKLGYLLFRDFCLNHLEEARPLVEFYEEIKKYEKLETEEERVARSREIFDSYIMKELLACSHPFSKSATEHVQGHLGKKQVPPDLFQPYIEEICQNLRGDVFQKFIESDKFTRFCQWKNVELNIHLTMNDFSVHRIIGRGGFGEVYGCRKADTGKMYAMKCLDKKRIKMKQGETLALNERIMLSLVSTGDCPFIVCMSYAFHTPDKLSFILDLMNGGDLHYHLSQHGVFSEADMRFYAAEIILGLEHMHNRFVVYRDLKPANILLDEHGHVRISDLGLACDFSKKKPHASVGTHGYMAPEVLQKGVAYDSSADWFSLGCMLFKLLRGHSPFRQHKTKDKHEIDRMTLTMAVELPDSFSPELRSLLEGLLQRDVNRRLGCLGRGAQEVKESPFFRSLDWQMVFLQKYPPPLIPPRGEVNAADAFDIGSFDEEDTKGIKLLDSDQELYRNFPLTISERWQQEVAETVFDTINAETDRLEARKKAKNKQLGHEEDYALGKDCIMHGYMSKMGNPFLTQWQRRYFYLFPNRLEWRGEGEAPQSLLTMEEIQSVEETQIKERKCLLLKIRGGKQFILQCDSDPELVQWKKELRDAYREAQQLVQRVPKMKNKPRSPVVELSKVPLVQRGSANGLGSAGWGKLGSAGSGSAGSMTSKVYDPEQRKRMITGPQWWARCKQMNVLDSFINYYDSEKHAENAVIFLHGNATSSYLWRHVVPHIEPVARCIIPDLIGMGKSGKSGNGSYRLLDHYKYLTAWFELLNL
2 |  | binds | RlucII-GRK2 (GRK2 tagged at its N-terminus with RlucII) (protein) MTSKVYDPEQRKRMITGPQWWARCKQMNVLDSFINYYDSEKHAENAVIFLHGNATSSYLWRHVVPHIEPVARCIIPDLIGMGKSGKSGNGSYRLLDHYKYLTAWFELLNLPKKIIFVGHDWGAALAFHYSYEHQDKIKAIVHAESVVDVIESWDEWPDIEEDIALIKSEEGEKMVLENNFFVETVLPSKIMRKLEPEEFAAYLEPFKEKGEVRRPTLSWPREIPLVKGGKPDVVQIVRNYNAYLRASDDLPKMFIESDPGFFSNAIVEGAKKFPNTEFVKVKGLHFSQEDAPDEMGKYIKSFVERVLKNEQGGSGSGSGSMADLEAVLADVSYLMAMEKSKATPAARASKKILLPEPSIRSVMQKYLEDRGEVTFEKIFSQKLGYLLFRDFCLNHLEEARPLVEFYEEIKKYEKLETEEERVARSREIFDSYIMKELLACSHPFSKSATEHVQGHLGKKQVPPDLFQPYIEEICQNLRGDVFQKFIESDKFTRFCQWKNVELNIHLTMNDFSVHRIIGRGGFGEVYGCRKADTGKMYAMKCLDKKRIKMKQGETLALNERIMLSLVSTGDCPFIVCMSYAFHTPDKLSFILDLMNGGDLHYHLSQHGVFSEADMRFYAAEIILGLEHMHNRFVVYRDLKPANILLDEHGHVRISDLGLACDFSKKKPHASVGTHGYMAPEVLQKGVAYDSSADWFSLGCMLFKLLRGHSPFRQHKTKDKHEIDRMTLTMAVELPDSFSPELRSLLEGLLQRDVNRRLGCLGRGAQEVKESPFFRSLDWQMVFLQKYPPPLIPPRGEVNAADAFDIGSFDEEDTKGIKLLDSDQELYRNFPLTISERWQQEVAETVFDTINAETDRLEARKKAKNKQLGHEEDYALGKDCIMHGYMSKMGNPFLTQWQRRYFYLFPNRLEWRGEGEAPQSLLTMEEIQSVEETQIKERKCLLLKIRGGKQFILQCDSDPELVQWKKELRDAYREAQQLVQRVPKMKNKPRSPVVELSKVPLVQRGSANGL
